In PubChem BioAssay AID1026 (Columbia University Molecular Screening Center, 2008):
Only a part is listed here, and it is no random draw. The source made the active and inactive calls. The rule behind the calls is not given here.

Amino acid sequences for entries named in this document (tags omitted).
UniProt P34913, whole entry, looked up: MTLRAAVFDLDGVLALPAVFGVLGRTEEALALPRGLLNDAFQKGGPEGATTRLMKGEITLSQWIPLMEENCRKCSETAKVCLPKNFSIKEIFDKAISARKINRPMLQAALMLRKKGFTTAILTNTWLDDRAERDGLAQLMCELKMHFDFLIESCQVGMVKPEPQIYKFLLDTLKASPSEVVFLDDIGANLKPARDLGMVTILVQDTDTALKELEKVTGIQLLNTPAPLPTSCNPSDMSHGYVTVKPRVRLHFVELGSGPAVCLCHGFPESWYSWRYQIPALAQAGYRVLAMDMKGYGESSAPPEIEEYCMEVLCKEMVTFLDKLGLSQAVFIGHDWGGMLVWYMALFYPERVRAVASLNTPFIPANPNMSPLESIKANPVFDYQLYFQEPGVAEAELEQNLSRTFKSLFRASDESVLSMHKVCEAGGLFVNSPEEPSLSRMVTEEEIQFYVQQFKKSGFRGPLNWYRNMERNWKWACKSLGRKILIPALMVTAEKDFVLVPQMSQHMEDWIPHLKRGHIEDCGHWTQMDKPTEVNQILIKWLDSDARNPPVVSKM

Target: Bifunctional epoxide hydrolase 2 (Homo sapiens) (UniProt P34913)
Assay: sEH inhibitor concentration-response potency, dose response, biochemical, human sEH, fluorescence, Infinite200 (AID 1026)
Conditions: recombinant human sEH, fluorogenic substrate, at 0.2 µM, hits give high values

## CCN(CC)S(=O)(=O)c1cccc(C(=O)Nc2ccc(Cl)cn2)c1
  inhibition: inactive: 49.7%
